Results are given in words; binding and its absence hold for the method and conditions named. Binding can be weak; no strength is given.
Target: T1, paxillin LD1 (3-23C) synthetic peptide, fluorescein-labelled
T1 sequence (peptide, fluorescein coupled via the terminal (C-terminal, non-native) cysteine): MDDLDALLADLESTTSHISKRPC
Test: fluorescence polarisation; R7R8 serially diluted (maximum 160 μM) into 0.5 μM fluorescein-labelled peptide; PBS with 1 mM TCEP and 0.02% Tween-20; room temperature; triplicate; one-site total binding model; both purified

## talin 1 R7R8 domain protein (mouse) (domain or fragment)
  binding: binds weakly
